{"sequences": {"note": "Protein sequences, listed by entry. Tags and fused reporters are not part of them. Lines headed by an entry give the natural chain unless they say otherwise; changes in a name come on top.", "UniProt P28565": "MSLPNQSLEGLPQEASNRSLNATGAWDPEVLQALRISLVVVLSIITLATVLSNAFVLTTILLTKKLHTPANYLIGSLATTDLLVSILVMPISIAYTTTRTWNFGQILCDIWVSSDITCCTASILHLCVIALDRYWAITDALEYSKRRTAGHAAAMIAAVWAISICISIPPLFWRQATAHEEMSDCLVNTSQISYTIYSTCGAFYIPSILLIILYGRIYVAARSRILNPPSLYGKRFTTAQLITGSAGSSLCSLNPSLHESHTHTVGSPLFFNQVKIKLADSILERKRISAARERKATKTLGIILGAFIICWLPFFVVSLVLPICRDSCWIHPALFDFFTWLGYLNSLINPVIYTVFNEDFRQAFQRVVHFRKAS"}, "source": "patent US12428408B2", "about": "“Fused heterocyclic mescaline derivatives” (Enveric Biosciences Canada Inc., priority 2022, dated 2025)", "target": "T1, 5-HT1D (r) (Rattus norvegicus, UniProt P28565)", "T1 construct": "host or cells: CHO cells", "test": "Competition assay to measure binding affinity at 5-HT1D receptor", "settings": "test ligand 10 μM; [3H]serotonin 1 nM"}
{"smiles": "O=c1n(CCCN2CCN(c3cccc(Cl)c3)CC2)nc2ccccn12", "note": "[Trazodone, reference compound]", "values": [{"measurement": "HT1D, percent of control-specific binding", "value": 92, "unit": "%"}]}
